These results are taken from patent US5821330A (Nihon Medi-Physics Co., Ltd., priority 1993, dated 1998).

Ends that are not written are not given here. * marks the point of attachment. Acm = CC(=O)NC*

The data set is described as follows: general procedure: Fmoc solid-phase peptide synthesis; HMP Resin. The settings on record: whole synthesis.

With C(Acm)GC(Acm)GGGKEYKAKVSNKALPAPIEKTISK, the “final purity (method not given)” value is recorded as 95% or more. With C(Acm)GC(Acm)GGKTKPREQQYNSTYRVV the entry was “not less than 95%”.
